This note sets out measurements from publication doi:10.1101/2023.06.02.543457.

Amino acid sequences for entries named in this document (tags omitted).
UniProt Q9D9T0: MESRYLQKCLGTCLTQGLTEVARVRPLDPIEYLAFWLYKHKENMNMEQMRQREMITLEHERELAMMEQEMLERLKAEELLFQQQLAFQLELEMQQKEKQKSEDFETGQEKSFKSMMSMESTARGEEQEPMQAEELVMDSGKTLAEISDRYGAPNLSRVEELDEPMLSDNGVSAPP

Results are given in words; binding and its absence hold for the method and conditions named. Some entries that bind do so weakly or less than the wild type.

In this test the target is T1, Rsph3b (mouse) (UniProt Q9DA80).
T1 sequence: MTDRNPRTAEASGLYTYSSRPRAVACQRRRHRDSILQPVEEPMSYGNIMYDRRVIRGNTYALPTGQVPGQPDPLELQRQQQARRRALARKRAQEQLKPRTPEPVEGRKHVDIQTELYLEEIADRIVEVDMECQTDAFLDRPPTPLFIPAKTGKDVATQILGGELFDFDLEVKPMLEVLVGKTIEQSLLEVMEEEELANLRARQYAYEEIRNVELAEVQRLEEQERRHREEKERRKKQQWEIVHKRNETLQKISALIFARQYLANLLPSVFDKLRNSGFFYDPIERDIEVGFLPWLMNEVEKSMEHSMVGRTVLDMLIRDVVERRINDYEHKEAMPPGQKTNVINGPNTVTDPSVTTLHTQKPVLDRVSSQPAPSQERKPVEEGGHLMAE
The test is described as follows: cryo-EM structure.

Turning to Rsph2 (from UniProt Q9D9T0 1-175), the binding result was “binds”.
